Screening data

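A panel of P. falciparum strains inside erythrocytes is exposed to compounds for three days, then a DNA-binding dye reports the amount of parasite DNA.
Each compound was titrated across a series from about 0.000037 to 29 µM.
The number is the fitted AC50, the concentration giving a half-maximal change in signal; a lower value means higher potency, whether the curve shows a decrease or an increase.
Calls follow the curve class and fit quality: every row here is inconclusive, covering signal-raising curves and weak, poorly fitted, partial or highest-dose-only inhibition curves.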

Values are in µM.
Every entry below has the call inconclusive.
Only part of the assay is shown, chiefly results filed as inconclusive.
Potencies fitted to partial, single-point or poorly fitting curves are rough.
The first word of each remark tells which way the curve ran; it can be opposite to the aim of the assay.

Compound | tested on / at | fitted potency (µM) | curve
CCCCN1CCCC1C(=O)Nc1c(C)cc(C)cc1C (stereo not shown) | 7G8 | 8.912 | inhibitor, single point
CCCCN1CCCC1C(=O)Nc1c(C)cc(C)cc1C (stereo not shown) | ICS | 11.22 | inhibitor, partial curve, poor fit
CCCCN1CCCC1C(=O)Nc1c(C)cc(C)cc1C (stereo not shown) | CP266 | 0.0675 | inhibitor, full curve, poor fit
CCCCN1CCCC1C(=O)Nc1c(C)cc(C)cc1C (stereo not shown) | CP237 | 11.22 | inhibitor, partial curve, poor fit
CCCCN1CCCC1C(=O)Nc1c(C)cc(C)cc1C (stereo not shown) | Dd2 | 12.59 | inhibitor, partial curve
CCCCN1CCCC1C(=O)Nc1c(C)cc(C)cc1C (stereo not shown) | W2 | 19.01 | inhibitor, single point
OC(c1ccccc1)(c1ccccc1)C1CCNCC1 | DIV14 | 3.612 | inhibitor, partial curve
OC(c1ccccc1)(c1ccccc1)C1CCNCC1 | PC15 | 3.981 | inhibitor, partial curve
OC(c1ccccc1)(c1ccccc1)C1CCNCC1 | DIV30 | 0.0322 | inhibitor, partial curve, poor fit
OC(c1ccccc1)(c1ccccc1)C1CCNCC1 | 7G8 | 3.981 | inhibitor, partial curve
OC(c1ccccc1)(c1ccccc1)C1CCNCC1 | DIV17 | 5.103 | inhibitor, partial curve, poor fit
OC(c1ccccc1)(c1ccccc1)C1CCNCC1 | ICS | 2.239 | inhibitor, partial curve
Cc1scc2c1N(C(=O)CN1CCN(C)CC1)c1ccccc1NC2=O | TAB165 | 17.78 | activator, single point
Cc1scc2c1N(C(=O)CN1CCN(C)CC1)c1ccccc1NC2=O | CP262 | 19.01 | inhibitor, partial curve, poor fit
CN1C2CCC1CC(OC(c1ccccc1)c1ccccc1)C2 (stereo not shown) | CP266 | 2.393 | inhibitor, full curve, poor fit
CN1C2CCC1CC(OC(c1ccccc1)c1ccccc1)C2 (stereo not shown) | CP268 | 8.492 | inhibitor, partial curve
CN1C2CCC1CC(OC(c1ccccc1)c1ccccc1)C2 (stereo not shown) | CP297 | 10.69 | inhibitor, partial curve, poor fit
CN1C2CCC1CC(OC(c1ccccc1)c1ccccc1)C2 (stereo not shown) | CP237 | 11.22 | inhibitor, single point
CN1C2CCC1CC(OC(c1ccccc1)c1ccccc1)C2 (stereo not shown) | CP256 | 7.943 | inhibitor, partial curve
CN1C2CCC1CC(OC(c1ccccc1)c1ccccc1)C2 (stereo not shown) | CP247 | 4.467 | inhibitor, partial curve
CN1C2CCC1CC(OC(c1ccccc1)c1ccccc1)C2 (stereo not shown) | CP194 | 10.69 | inhibitor, partial curve
CN1C2CCC1CC(OC(c1ccccc1)c1ccccc1)C2 (stereo not shown) | DIV30 | 5.358 | inhibitor, partial curve
CN1C2CCC1CC(OC(c1ccccc1)c1ccccc1)C2 (stereo not shown) | CP215 | 16.94 | inhibitor, partial curve, poor fit
CN1C2CCC1CC(OC(c1ccccc1)c1ccccc1)C2 (stereo not shown) | PAD | 5.012 | inhibitor, partial curve
CN1C2CCC1CC(OC(c1ccccc1)c1ccccc1)C2 (stereo not shown) | TAB109 | 5.012 | inhibitor, partial curve
Cc1oncc1C(=O)Nc1ccc(C(F)(F)F)cc1 | HB3 | 7.943 | inhibitor, single point
Cc1oncc1C(=O)Nc1ccc(C(F)(F)F)cc1 | P93_24 | 10 | inhibitor, single point
Cc1oncc1C(=O)Nc1ccc(C(F)(F)F)cc1 | GB4 | 5.103 | inhibitor, single point
Cc1oncc1C(=O)Nc1ccc(C(F)(F)F)cc1 | CP260 | 10 | inhibitor, single point
Cc1oncc1C(=O)Nc1ccc(C(F)(F)F)cc1 | CP191 | 3.162 | inhibitor, single point
Cc1oncc1C(=O)Nc1ccc(C(F)(F)F)cc1 | DIV17 | 5.726 | inhibitor, single point
Cc1oncc1C(=O)Nc1ccc(C(F)(F)F)cc1 | CP265 | 7.08 | inhibitor, single point
Cc1oncc1C(=O)Nc1ccc(C(F)(F)F)cc1 | CP215 | 0.0002 | activator, full curve, poor fit
CCC1NC(=O)C(NC(=O)c2ncccc2O)C(C)OC(=O)C(c2ccccc2)NC(=O)C2CC(=O)CCN2C(=O)C(Cc2ccccc2)N(C)C(=O)C2CCCN2C1=O (stereo not shown) | P94_40 | 12.59 | inhibitor, single point
CCC1NC(=O)C(NC(=O)c2ncccc2O)C(C)OC(=O)C(c2ccccc2)NC(=O)C2CC(=O)CCN2C(=O)C(Cc2ccccc2)N(C)C(=O)C2CCCN2C1=O (stereo not shown) | ECU | 11.22 | inhibitor, single point
CCC1NC(=O)C(NC(=O)c2ncccc2O)C(C)OC(=O)C(c2ccccc2)NC(=O)C2CC(=O)CCN2C(=O)C(Cc2ccccc2)N(C)C(=O)C2CCCN2C1=O (stereo not shown) | PAD | 14.13 | inhibitor, single point
CCC1NC(=O)C(NC(=O)c2ncccc2O)C(C)OC(=O)C(c2ccccc2)NC(=O)C2CC(=O)CCN2C(=O)C(Cc2ccccc2)N(C)C(=O)C2CCCN2C1=O (stereo not shown) | AS120 | 17.78 | inhibitor, single point
CCC1NC(=O)C(NC(=O)c2ncccc2O)C(C)OC(=O)C(c2ccccc2)NC(=O)C2CC(=O)CCN2C(=O)C(Cc2ccccc2)N(C)C(=O)C2CCCN2C1=O (stereo not shown) | N140 | 15.85 | inhibitor, single point
CCC1NC(=O)C(NC(=O)c2ncccc2O)C(C)OC(=O)C(c2ccccc2)NC(=O)C2CC(=O)CCN2C(=O)C(Cc2ccccc2)N(C)C(=O)C2CCCN2C1=O (stereo not shown) | Dd2 | 12.59 | inhibitor, single point
CCC1NC(=O)C(NC(=O)c2ncccc2O)C(C)OC(=O)C(c2ccccc2)NC(=O)C2CC(=O)CCN2C(=O)C(Cc2ccccc2)N(C)C(=O)C2CCCN2C1=O (stereo not shown) | TAB165 | 17.78 | inhibitor, single point
CCC1NC(=O)C(NC(=O)c2ncccc2O)C(C)OC(=O)C(c2ccccc2)NC(=O)C2CC(=O)CCN2C(=O)C(Cc2ccccc2)N(C)C(=O)C2CCCN2C1=O (stereo not shown) | HB3 | 10 | inhibitor, single point
CN1CC(=O)N2C(Cc3c([nH]c4ccccc34)[C@H]2c2ccc3c(c2)OCO3)C1=O (stereo partly shown) | DIV17 | 19.01 | inhibitor, single point
CN1CC(=O)N2C(Cc3c([nH]c4ccccc34)[C@H]2c2ccc3c(c2)OCO3)C1=O (stereo partly shown) | CP260 | 17.78 | inhibitor, single point
CN1CC(=O)N2C(Cc3c([nH]c4ccccc34)[C@H]2c2ccc3c(c2)OCO3)C1=O (stereo partly shown) | DIV14 | 16.94 | inhibitor, single point
CN1CC(=O)N2C(Cc3c([nH]c4ccccc34)[C@H]2c2ccc3c(c2)OCO3)C1=O (stereo partly shown) | P93_24 | 17.78 | inhibitor, single point
CN1CC(=O)N2C(Cc3c([nH]c4ccccc34)[C@H]2c2ccc3c(c2)OCO3)C1=O (stereo partly shown) | ICS | 11.22 | inhibitor, single point
CCCC1CCCCN1 (stereo not shown) | CP247 | 11.22 | inhibitor, single point
CCCC1CCCCN1 (stereo not shown) | CP266 | 21.33 | inhibitor, single point
CCCC1CCCCN1 (stereo not shown) | CP211 | 0.0013 | activator
CCCC1CCCCN1 (stereo not shown) | CP250 | 0.7943 | inhibitor, partial curve
Cn1c(O)c(N=NC(N)=S)c2ccccc21 | CP335 | 19.01 | inhibitor, single point
Cn1c(O)c(N=NC(N)=S)c2ccccc21 | DIV17 | 9.528 | inhibitor, partial curve
Cn1c(O)c(N=NC(N)=S)c2ccccc21 | CP256 | 17.78 | inhibitor, single point
Cn1c(O)c(N=NC(N)=S)c2ccccc21 | PAD | 8.912 | inhibitor, single point
Cn1c(O)c(N=NC(N)=S)c2ccccc21 | CP252 | 11.22 | inhibitor, single point

The last 7 entries again:

For CCCC1CCCCN1 (stereo not shown) [CP211] the result was fitted potency 0.0013 µM (activator).
For CCCC1CCCCN1 (stereo not shown) [CP250] the result was fitted potency 0.7943 µM (inhibitor, partial curve).
For Cn1c(O)c(N=NC(N)=S)c2ccccc21 [CP335] the result was fitted potency 19.01 µM (inhibitor, single point).
For Cn1c(O)c(N=NC(N)=S)c2ccccc21 [DIV17] the result was fitted potency 9.528 µM (inhibitor, partial curve).
For Cn1c(O)c(N=NC(N)=S)c2ccccc21 [CP256] the result was fitted potency 17.78 µM (inhibitor, single point).
For Cn1c(O)c(N=NC(N)=S)c2ccccc21 [PAD] the result was fitted potency 8.912 µM (inhibitor, single point).
For Cn1c(O)c(N=NC(N)=S)c2ccccc21 [CP252] the result was fitted potency 11.22 µM (inhibitor, single point).

Source: PubChem BioAssay AID504749 (NCATS, 2011).